PubChem BioAssay AID686938, Drosophila RNAi Screening Center | 2013

Purpose: 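Looking for CRAC channel components and the factors controlling them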 (primary screen)
Cells: Drosophila S2R+ cells
Reagents: long dsRNA against Drosophila genes, about 0.25 µg dsRNA per well, roughly 10,000 cells
Duration: 5 days of knock-down before the calcium assay
Treatment: thapsigargin (SERCA pump blocker) to empty calcium stores; entry signal taken 4 min after adding it
Measurement: 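Per-well fluo-4 fluorescence in two replicates, unnormalised, measured in resting cells and 4 min after store depletion by the SERCA blocker thapsigargin; ratio of the two present in few wells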
Direction: calcium entry signal: higher = stronger calcium signal after store depletion; resting calcium signal: higher = higher resting calcium signal
Active means: 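Hit if the duplicate-averaged plate z-score for entry over resting signal is under −3; wells with weak total dye signal (Fmax z < −2) or more than 5 off-targets removed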
Meaning of the calls: active = strongly reduced calcium entry; inactive = no strong reduction
The deposit covers about 23,000 reagents; this is a random part of those that have a named target and a result. Of all reagents, 75 (0.33%) are marked active. 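Raw plate signals without normalisation; calls rest on plate z-scores that were not deposited; ratio present for only 364 wells.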 A plus sign joins genes that one reagent is predicted to hit. Not stated in the record: the dose of the treatment.

| gene | amplicon | calcium entry signal, replicate 1 (fluorescence units) | calcium entry signal, replicate 2 (fluorescence units) | resting calcium signal, replicate 1 (fluorescence units) | resting calcium signal, replicate 2 (fluorescence units) | Outcome |
| --- | --- | --- | --- | --- | --- | --- |
| CG43193 (retired record) | DRSC20426 | 3.11e7 | 3.43e7 | 1.53e7 | 1.73e7 | inactive |
| c12.2 | DRSC18751 | 2.92e7 | 3.55e7 | 1.45e7 | 1.64e7 | inactive |
| Cyp4d21 (Cytochrome P450 4d21) | DRSC03305 | 4.62e7 | – | 2.62e7 | – | inactive |
| TwdlC (TweedleC) | DRSC14749 | 3.33e7 | 4.36e7 | 1.66e7 | 1.95e7 | inactive |
| loqs (loquacious) | DRSC02997 | 3.35e7 | 2.16e7 | 1.57e7 | 1.07e7 | inactive |
| CG13856 | DRSC14706 | 3.71e7 | 4.54e7 | 4.65e7 | 1.96e7 | inactive |
| MrgBP (MRG/MORF4L binding protein) | DRSC06417 | 2.03e7 | 2.80e7 | 1.25e7 | 1.26e7 | active |
| Prat (Phosphoribosylamidotransferase) | DRSC16797 | 2.21e7 | 3.00e7 | 1.05e7 | 1.40e7 | inactive |
| SerRS-m (Seryl-tRNA synthetase, mitochondrial) | DRSC14096 | 3.25e7 | 4.49e7 | 1.51e7 | 6.18e7 | inactive |
| Tmem63 (Transmembrane protein 63) | DRSC06063 | 2.93e7 | 3.61e7 | 1.39e7 | 1.56e7 | inactive |
| AlaRS (Alanyl-tRNA synthetase) | DRSC01851 | 3.64e7 | – | 1.81e7 | – | inactive |
| CG43092 | DRSC13572 | 5.33e7 | 3.49e7 | 2.46e7 | 1.74e7 | inactive |
| CG8564 | DRSC10997 | 5.15e7 | 3.21e7 | 3.38e7 | 1.45e7 | inactive |
| Sp212 (Serine-peptidase 212) | DRSC22930 | 2.88e7 | 2.72e7 | 1.64e7 | 1.21e7 | inactive |
| Best2 (Bestrophin 2) | DRSC09712 | 2.90e7 | 4.44e7 | 1.41e7 | 1.93e7 | inactive |
| CG6656 | DRSC16085 | 2.55e7 | 2.34e7 | 1.25e7 | 1.18e7 | inactive |
| CG42307 + mus312 | DRSC11008 | 2.27e7 | 3.41e7 | 1.11e7 | 1.50e7 | inactive |
| Aprt (Adenine phosphoribosyltransferase) | DRSC08139 | 2.49e7 | 3.17e7 | 1.40e7 | 1.53e7 | inactive |
| CG33307 | DRSC01349 | 4.16e7 | 4.51e7 | 1.98e7 | 1.87e7 | inactive |
| CG5084 | DRSC06913 | 4.21e7 | 5.25e7 | 1.77e7 | 2.40e7 | inactive |
| lncRNA:roX1 (long non-coding RNA on the X 1) | DRSC21884 | 2.76e7 | 4.02e7 | 1.37e7 | 1.99e7 | inactive |
| wg (wingless) | DRSC03636 | 3.58e7 | 3.27e7 | 1.78e7 | 1.56e7 | inactive |
| lwr (lesswright) | DRSC00828 | 2.74e7 | – | 1.76e7 | – | inactive |
| mRpL41 (mitochondrial ribosomal protein L41) | DRSC06257 | 4.05e7 | 4.32e7 | 1.91e7 | 1.80e7 | inactive |
| REPTOR-BP (REPTOR-binding partner) | DRSC02683 | 2.69e7 | 3.41e7 | 1.45e7 | 1.37e7 | inactive |
| CG5087 | DRSC10479 | 3.39e7 | 4.70e7 | 1.56e7 | 2.05e7 | inactive |
| Nmdar1 (NMDA receptor 1) | DRSC12071 | 3.10e7 | 5.33e7 | 1.48e7 | 2.59e7 | inactive |
| Nmdar1 (NMDA receptor 1) | DRSC12356 | 3.32e7 | 2.80e7 | 1.67e7 | 1.36e7 | inactive |
| Nup35 (Nucleoporin 35kDa) | DRSC19999 | 3.25e7 | 3.44e7 | 1.63e7 | 1.57e7 | inactive |
| msk (moleskin) | DRSC11340 | 4.52e7 | 4.01e7 | 3.24e7 | 1.66e7 | inactive |
| TrissinR (Trissin receptor) | DRSC02334 | 3.89e7 | 3.33e7 | 1.74e7 | 1.64e7 | inactive |
| TrissinR (Trissin receptor) | DRSC02335 | 4.10e7 | 4.05e7 | 2.00e7 | 1.93e7 | inactive |
| TrissinR (Trissin receptor) | DRSC02336 | 2.83e7 | 2.45e7 | 1.39e7 | 1.21e7 | inactive |
| CG32628 (retired record) | DRSC19405 | 4.70e7 | 3.19e7 | 2.27e7 | 1.71e7 | inactive |
| PIG-N (Phosphatidylinositol glycan anchor biosynthesis class N) | DRSC06837 | 3.91e7 | 3.56e7 | 1.80e7 | 1.64e7 | inactive |
| Dup99B (Ductus ejaculatorius peptide 99B) | DRSC22877 | 5.82e7 | 3.17e7 | 2.56e7 | 1.37e7 | inactive |
| GlyRS (Glycyl-tRNA synthetase) | DRSC10711 | 3.06e7 | 4.30e7 | 1.41e7 | 2.71e7 | inactive |

The list goes on, starting with the last 7 of the part before.
| gene | amplicon | calcium entry signal, replicate 1 (fluorescence units) | calcium entry signal, replicate 2 (fluorescence units) | resting calcium signal, replicate 1 (fluorescence units) | resting calcium signal, replicate 2 (fluorescence units) | Outcome |
| --- | --- | --- | --- | --- | --- | --- |
| TrissinR (Trissin receptor) | DRSC02334 | 3.89e7 | 3.33e7 | 1.74e7 | 1.64e7 | inactive |
| TrissinR (Trissin receptor) | DRSC02335 | 4.10e7 | 4.05e7 | 2.00e7 | 1.93e7 | inactive |
| TrissinR (Trissin receptor) | DRSC02336 | 2.83e7 | 2.45e7 | 1.39e7 | 1.21e7 | inactive |
| CG32628 (retired record) | DRSC19405 | 4.70e7 | 3.19e7 | 2.27e7 | 1.71e7 | inactive |
| PIG-N (Phosphatidylinositol glycan anchor biosynthesis class N) | DRSC06837 | 3.91e7 | 3.56e7 | 1.80e7 | 1.64e7 | inactive |
| Dup99B (Ductus ejaculatorius peptide 99B) | DRSC22877 | 5.82e7 | 3.17e7 | 2.56e7 | 1.37e7 | inactive |
| GlyRS (Glycyl-tRNA synthetase) | DRSC10711 | 3.06e7 | 4.30e7 | 1.41e7 | 2.71e7 | inactive |
| CG14408 | DRSC19595 | 2.93e7 | 3.32e7 | 1.42e7 | 1.58e7 | inactive |
| Lgr3 (Leucine-rich repeat-containing G protein-coupled receptor 3) | DRSC15704 | 3.46e7 | 6.77e7 | 1.71e7 | 2.66e7 | inactive |
| Lgr3 (Leucine-rich repeat-containing G protein-coupled receptor 3) | DRSC15706 | 3.21e7 | 2.41e7 | 1.67e7 | 1.14e7 | inactive |
| CG42588 | DRSC09820 | 2.17e7 | 2.76e7 | 1.17e7 | 1.31e7 | inactive |
| CG42588 | DRSC22121 | 2.24e7 | 4.74e7 | 1.14e7 | 2.21e7 | inactive |
| PTPMT1 (Protein tyrosine phosphatase, mitochondrial 1) | DRSC14235 | 4.18e7 | 3.12e7 | 2.06e7 | 1.49e7 | inactive |
| CG4815 | DRSC15653 | 2.84e7 | 4.92e7 | 1.56e7 | 2.31e7 | inactive |
| CG9806 | DRSC18444 | 3.27e7 | 4.02e7 | 1.60e7 | 1.99e7 | inactive |
| Elp1 (Elongator complex protein 1) | DRSC14250 | 2.82e7 | 3.04e7 | 1.30e7 | 1.41e7 | inactive |
| CG4408 | DRSC15574 | 4.96e7 | 4.80e7 | 2.38e7 | 2.00e7 | inactive |
| Cpr50Ca (Cuticular protein 50Ca) | DRSC05454 | 4.94e7 | 4.68e7 | 2.32e7 | 2.29e7 | inactive |
| Cpr50Ca (Cuticular protein 50Ca) | DRSC06372 | 3.88e7 | 3.72e7 | 1.87e7 | 1.77e7 | inactive |
| Cpr50Ca (Cuticular protein 50Ca) | DRSC06375 | 3.42e7 | 4.64e7 | 1.76e7 | 2.02e7 | inactive |
| Alg2 (ALG2, alpha-1,3/1,6-mannosyltransferase) | DRSC08298 | 2.89e7 | 2.22e7 | 2.08e7 | 9.82e6 | inactive |
| sog (short gastrulation) | DRSC20379 | 2.32e7 | 2.90e7 | 1.38e7 | 1.43e7 | inactive |
| CG34159 | DRSC02885 | 2.34e7 | 3.06e7 | 1.35e7 | 1.47e7 | inactive |
| CG34159 | DRSC23222 | 4.48e7 | 3.40e7 | 2.13e7 | 1.64e7 | inactive |
| nero | DRSC15432 | 2.16e7 | 3.07e7 | 1.36e7 | 1.53e7 | inactive |
| S (Star) | DRSC00785 | 4.07e7 | 4.01e7 | 1.93e7 | 1.94e7 | inactive |
| CG9040 | DRSC11053 | 6.05e7 | 5.07e7 | 2.46e7 | 2.04e7 | inactive |
| CG31459 | DRSC13380 | 4.37e7 | 3.46e7 | 2.04e7 | 1.60e7 | inactive |
